{
  "source": "paper PMC7972453",
  "about": "“The allosteric modulation of complement C5 by knob domain peptides” (eLife, 2021)",
  "test_system": "complement component C5",
  "test": "SEC-SAXS of C5-knob domain complexes",
  "set-up": "species or system human",
  "details": "C5 complex with the peptide, 293 K",
  "note": "Bridges are numbered along the chain shown (N, C = ends). Where no end group is shown, it is not given here.",
  "data": [
    {"sequence": "SVCPDGFDWGYGCAAGSSRFCTRHDWCCYDERADSHTYGFCTGNRVENLYFQ (disulfide 3-28, 13-21, 27-41) [K8]", "values": [
      {"measurement": "Rg (from P(r))", "setting": "20mM Tris pH 7.35, 75mM NaCl, 3% glycerol, apo C5 4.8 ± 0.1", "value": "5.4 ± 0.1", "unit": "nm"},
      {"measurement": "Rg (from Guinier plot)", "setting": "Tris pH 7.35, apo C5 4.8 ± 0.1", "value": "5.4 ± 0.1", "unit": "nm"},
      {"measurement": "Dmax", "setting": "Tris pH 7.35, apo C5 17.6 ± 0.5", "value": "18.3 ± 10", "unit": "nm"},
      {"measurement": "Porod volume estimate, Vp", "setting": "Tris pH 7.35, apo C5 390 ± 10", "value": "450 ± 10", "unit": "nm3"}
    ]}
  ]
}
